Read-outs that look alike come from different tables or passages of the source.
[1] = after atropine administered during exercise
[2] = by 10 minutes of recovery, atropine test

CN1[C@@H]2CC[C@H]1C[C@@H](OC(=O)C(CO)c1ccccc1)C2 (some centres unmarked) [Atropine, atropine]
plasma epinephrine level [1]: significant reductions | plasma norepinephrine level [1]: significant reductions | plasma epinephrine level [2]: returned to the resting values | plasma norepinephrine level [2]: returned to the resting values | plasma catecholamine levels (during recovery, atropine at the end of exercise, versus baseline values): slightly lower than baseline values

Source: patent US20110190834A1, “DEVICES AND METHODS FOR SUPPRESSION OF SYMPATHOEXCITATION” (priority 2010, published 2011)
